Measured values as given in article PMC10800076.
These are yes or no findings as the source states them, for the method shown. Binding seen in cells or lysates may run through a third protein. A yes stands for co-enrichment or nearness to the bait. Other partners may have been found. Sequences can lack the tags named with a protein.

The chains behind the UniProt entries cited, without tags or fusion partners. Residues count along the entry.
UniProt P25311, residues 21-298: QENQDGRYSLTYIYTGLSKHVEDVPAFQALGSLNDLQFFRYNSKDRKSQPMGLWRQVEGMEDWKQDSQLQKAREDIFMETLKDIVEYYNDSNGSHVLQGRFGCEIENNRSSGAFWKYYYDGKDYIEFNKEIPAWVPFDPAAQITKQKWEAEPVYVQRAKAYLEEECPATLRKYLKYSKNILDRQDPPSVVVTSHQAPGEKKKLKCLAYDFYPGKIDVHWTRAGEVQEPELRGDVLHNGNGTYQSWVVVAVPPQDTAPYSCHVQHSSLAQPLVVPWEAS

Molecular target: T1, MIIP with Streptavidin tag (S) and Flag tag (F), in pcDNA3.1(+) (human) (UniProt Q5JXC2)
T1 sequence: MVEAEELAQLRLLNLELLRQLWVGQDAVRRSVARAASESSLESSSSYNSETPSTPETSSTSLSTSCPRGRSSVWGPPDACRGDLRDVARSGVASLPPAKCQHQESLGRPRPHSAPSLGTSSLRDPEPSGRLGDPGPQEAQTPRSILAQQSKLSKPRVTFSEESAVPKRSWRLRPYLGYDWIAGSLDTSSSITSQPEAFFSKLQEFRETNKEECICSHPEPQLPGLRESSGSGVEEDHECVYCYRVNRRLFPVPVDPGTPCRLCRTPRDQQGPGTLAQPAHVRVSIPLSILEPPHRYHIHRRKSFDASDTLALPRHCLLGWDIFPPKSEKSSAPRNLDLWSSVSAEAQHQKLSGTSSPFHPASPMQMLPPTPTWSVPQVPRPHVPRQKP
Assay: affinity purification with mass spectrometry; tandem affinity purification of MIIP and mass spectrometry of associated proteins; cells not given

binding: binds
Substance: AZGP1 (alpha-2-glycoprotein 1, zinc-binding), endogenous (from UniProt P25311 21-298)
